Data on 2 substances can be found in paper PMC6136811.

By UniProt entry, the sequences of proteins in these tests, tags left out. Where a name states a change or a piece, a line headed by the entry shows the natural chain unless it says otherwise.
UniProt O43683: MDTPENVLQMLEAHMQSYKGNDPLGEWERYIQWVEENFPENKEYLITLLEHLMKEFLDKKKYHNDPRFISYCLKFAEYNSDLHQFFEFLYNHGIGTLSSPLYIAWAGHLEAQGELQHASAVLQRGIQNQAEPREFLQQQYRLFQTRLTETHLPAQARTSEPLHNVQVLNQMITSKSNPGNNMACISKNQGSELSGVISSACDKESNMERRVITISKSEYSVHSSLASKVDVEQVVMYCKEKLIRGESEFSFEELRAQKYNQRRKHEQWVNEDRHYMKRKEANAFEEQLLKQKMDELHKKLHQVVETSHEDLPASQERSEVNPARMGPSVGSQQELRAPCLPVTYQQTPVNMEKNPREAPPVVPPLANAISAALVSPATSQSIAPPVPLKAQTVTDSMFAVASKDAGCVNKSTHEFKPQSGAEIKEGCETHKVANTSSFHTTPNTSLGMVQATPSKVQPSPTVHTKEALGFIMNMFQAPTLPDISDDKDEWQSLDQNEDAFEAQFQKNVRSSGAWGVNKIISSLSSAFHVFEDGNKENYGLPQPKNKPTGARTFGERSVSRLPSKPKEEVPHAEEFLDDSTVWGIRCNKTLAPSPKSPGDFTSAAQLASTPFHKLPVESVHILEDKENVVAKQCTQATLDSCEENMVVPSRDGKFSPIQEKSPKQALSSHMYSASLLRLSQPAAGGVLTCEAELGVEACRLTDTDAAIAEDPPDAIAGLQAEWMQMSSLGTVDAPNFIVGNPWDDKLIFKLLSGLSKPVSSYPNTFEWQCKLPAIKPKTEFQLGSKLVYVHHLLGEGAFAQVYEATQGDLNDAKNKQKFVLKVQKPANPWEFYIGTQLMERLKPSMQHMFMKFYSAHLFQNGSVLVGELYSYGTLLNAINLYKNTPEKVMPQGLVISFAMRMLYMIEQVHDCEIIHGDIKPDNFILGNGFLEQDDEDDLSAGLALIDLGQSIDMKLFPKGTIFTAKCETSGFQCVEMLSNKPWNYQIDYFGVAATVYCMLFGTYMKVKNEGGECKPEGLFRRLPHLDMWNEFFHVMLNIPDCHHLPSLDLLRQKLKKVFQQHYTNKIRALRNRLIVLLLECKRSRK
UniProt Q9QR71: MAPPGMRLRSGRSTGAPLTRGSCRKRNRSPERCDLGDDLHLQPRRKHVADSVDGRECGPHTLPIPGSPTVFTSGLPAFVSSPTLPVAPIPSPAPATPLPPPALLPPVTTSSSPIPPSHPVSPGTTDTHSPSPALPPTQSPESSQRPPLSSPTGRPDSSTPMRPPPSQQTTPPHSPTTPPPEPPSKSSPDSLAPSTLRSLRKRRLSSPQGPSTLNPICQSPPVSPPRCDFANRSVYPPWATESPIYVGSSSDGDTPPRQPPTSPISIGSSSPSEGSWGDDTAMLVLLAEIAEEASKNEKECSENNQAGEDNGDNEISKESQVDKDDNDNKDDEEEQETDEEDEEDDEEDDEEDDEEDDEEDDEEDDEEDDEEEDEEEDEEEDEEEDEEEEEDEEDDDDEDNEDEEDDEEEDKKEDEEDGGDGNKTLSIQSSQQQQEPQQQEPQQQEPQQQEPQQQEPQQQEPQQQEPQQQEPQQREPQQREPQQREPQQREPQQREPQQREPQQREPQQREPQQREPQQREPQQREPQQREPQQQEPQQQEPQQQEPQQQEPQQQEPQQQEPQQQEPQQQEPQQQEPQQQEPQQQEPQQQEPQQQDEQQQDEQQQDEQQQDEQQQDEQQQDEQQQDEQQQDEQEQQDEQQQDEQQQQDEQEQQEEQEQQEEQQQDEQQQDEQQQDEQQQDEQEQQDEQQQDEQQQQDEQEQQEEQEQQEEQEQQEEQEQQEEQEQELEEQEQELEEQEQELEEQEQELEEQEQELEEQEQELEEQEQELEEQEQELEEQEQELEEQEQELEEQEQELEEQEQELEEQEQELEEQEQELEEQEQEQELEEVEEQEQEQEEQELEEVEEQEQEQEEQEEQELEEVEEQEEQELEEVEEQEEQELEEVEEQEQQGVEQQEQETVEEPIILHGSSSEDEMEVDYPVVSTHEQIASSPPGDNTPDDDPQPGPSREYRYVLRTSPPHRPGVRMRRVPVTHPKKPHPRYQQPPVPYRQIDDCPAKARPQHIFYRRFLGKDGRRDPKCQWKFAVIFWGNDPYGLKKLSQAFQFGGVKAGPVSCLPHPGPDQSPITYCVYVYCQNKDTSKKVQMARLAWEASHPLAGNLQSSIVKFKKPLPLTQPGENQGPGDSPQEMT

No constants are given. Whether binding was seen depends on the method and setting. In cells and extracts the contact can be indirect. Some entries that bind do so weakly or less than the wild type.

Experiment [1] has as its target Bub1 (UniProt O43683). Put plainly: co-IP; HEK293 transfected with indicated plasmids (with or without LANA, with or without NNLS, increasing amounts of NNLS plasmid), lysed after 48 hours; IP with Bub1 antibody, western blot. (A western blot detects proteins with antibodies after separation by electrophoresis.)
Experiment [2] addresses Bub1 (UniProt O43683). The experiment in a line: co-IP; reverse co-IP: HEK293 transfected with Bub1 and EQ, pRich or NNLS; IP with GFP antibody, western blot; cells treated with MG132 (20 uM) for 12 h before harvest.
Experiment [3] addresses Bub1 (UniProt O43683). The experiment in a line: co-IP; HEK293 transfected with Bub1 and LANA truncations, lysed after 48 hours; IP with 2 ug Myc antibody, western blot; cells treated with MG132 (20 uM) for 12 h before harvest.

Regarding “LANA (KSHV latency-associated nuclear antigen, ORF73), full length (from UniProt Q9QR71 1-1129)”, in the experiment with Bub1 [1], the binding entry was “binds”.
With “NNLS domain of LANA (N-terminal nuclear localization sequence domain, 1-87 aa) (from UniProt Q9QR71 1-87) (domain or fragment)”, the binding result with Bub1 [2] and with Bub1 [3] was “binds” throughout.
